Reference: paper PMC10944868, “Synthesis, biological and computational evaluation of novel cyanomethyl vinyl ether derivatives” (Frontiers in Pharmacology, 2024)

Columns and labels:
[1] = system: SKOV3 (human ovarian carcinoma); test: Cytotoxicity assay (CCK8), SKOV3; assay type: cell-based; conditions: SK-OV-3, SKOV3 cells, 48 h
Protocol: (§1) Cells were cultured according to the supplier´s instructions (ATCC technologies, A-549 (CCL-185), BT-20 (HTB-19), SKOV3 (HTB-77), HCT116 (CCL-247), MRC5 (CCL-171). Cells were seeded in 96-well plates at a density of 2–2.5 × 10^3 cells per well and incubated overnight in 0.1 mL of media supplied with 10% Fetal Bovine Serum (Lonza) in 5% CO2 incubator at 37°C. On day 2, drugs were added and samples were incubated for 48 h. After treatment, 10 µL of cell counting kit-8 was added into each well for additional 2 h incubation at 37°C. The absorbance of each well was determined by an Automatic Elisa Reader System at 450 nm wavelength.
(§2) The cytotoxicity of the new synthesized 3-(cyanomethoxy)acrylates was investigated in vitro by testing the antiproliferative activities against two human cancer cell lines: A549 (carcinomic human alveolar basal epithelial cells), SKOV3 (human ovarian carcinoma), BT20 (human breast carcinoma), HCT-116 (human colorectal carcinoma) and MRC-5 (non-malignant lung fibroblasts). The cell counting kit (CCK8) assay was employed to assess growth inhibition and, the cell proliferation inhibitory activities of the compounds are listed in Table 1 as IC50 values (Table 1).

[2] = system: BT20 (human breast carcinoma); test: Cytotoxicity assay (CCK8), BT20; assay type: cell-based; conditions: BT-20, BT20 cells, 48 h
Protocol: as §1, §2

COc1cc2c(c(OC)c1OC)-c1ccc(OC)c(=O)cc1[C@@H](NC(C)=O)CC2 [COL, colchicine, reference compound]
IC50 [1]: 11.6 ± 2.33 µM
IC50 [2]: 22 ± 1.3 µM
